According to paper doi:10.1101/2021.04.23.441060:
These are yes or no findings as the source states them, for the method shown. Binding seen in cells or lysates may run through a third protein. A yes stands for co-enrichment or nearness to the bait. Other partners may have been found.

By UniProt entry, the sequences of proteins in these tests, tags left out.
UniProt P48432: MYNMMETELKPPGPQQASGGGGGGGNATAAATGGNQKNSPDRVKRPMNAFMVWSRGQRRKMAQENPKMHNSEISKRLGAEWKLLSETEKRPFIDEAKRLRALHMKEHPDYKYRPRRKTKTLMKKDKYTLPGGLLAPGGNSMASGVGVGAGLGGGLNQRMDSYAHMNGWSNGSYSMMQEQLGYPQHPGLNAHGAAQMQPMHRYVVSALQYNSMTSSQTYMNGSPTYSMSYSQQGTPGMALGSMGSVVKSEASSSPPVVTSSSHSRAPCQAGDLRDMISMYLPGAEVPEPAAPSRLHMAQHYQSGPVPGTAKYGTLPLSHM
UniProt O09106: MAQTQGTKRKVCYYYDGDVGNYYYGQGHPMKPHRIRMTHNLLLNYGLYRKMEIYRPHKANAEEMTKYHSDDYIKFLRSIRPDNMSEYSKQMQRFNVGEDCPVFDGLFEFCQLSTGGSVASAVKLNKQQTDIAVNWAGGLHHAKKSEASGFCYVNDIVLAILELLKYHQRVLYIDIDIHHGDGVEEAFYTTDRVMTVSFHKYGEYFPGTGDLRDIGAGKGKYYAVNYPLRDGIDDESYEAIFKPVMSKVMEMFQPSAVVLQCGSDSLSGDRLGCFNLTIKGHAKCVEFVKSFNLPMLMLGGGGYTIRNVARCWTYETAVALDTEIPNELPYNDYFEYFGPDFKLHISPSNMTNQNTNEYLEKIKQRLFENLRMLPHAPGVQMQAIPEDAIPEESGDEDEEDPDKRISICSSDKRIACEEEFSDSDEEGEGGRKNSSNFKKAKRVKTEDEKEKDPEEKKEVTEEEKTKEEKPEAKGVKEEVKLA
UniProt P70288: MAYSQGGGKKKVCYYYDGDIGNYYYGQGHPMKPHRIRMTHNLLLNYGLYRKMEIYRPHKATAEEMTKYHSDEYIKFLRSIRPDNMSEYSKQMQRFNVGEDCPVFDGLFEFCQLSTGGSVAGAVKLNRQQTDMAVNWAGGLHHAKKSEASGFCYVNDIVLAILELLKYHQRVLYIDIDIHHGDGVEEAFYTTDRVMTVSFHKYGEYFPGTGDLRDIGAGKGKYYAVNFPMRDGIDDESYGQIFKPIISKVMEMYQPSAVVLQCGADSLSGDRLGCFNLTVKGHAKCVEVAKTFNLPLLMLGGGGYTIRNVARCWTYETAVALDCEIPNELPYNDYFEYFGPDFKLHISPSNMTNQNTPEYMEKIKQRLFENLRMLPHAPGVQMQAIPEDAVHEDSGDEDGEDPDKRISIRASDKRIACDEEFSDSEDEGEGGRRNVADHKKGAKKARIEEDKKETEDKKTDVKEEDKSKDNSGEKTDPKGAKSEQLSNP
UniProt Q08122: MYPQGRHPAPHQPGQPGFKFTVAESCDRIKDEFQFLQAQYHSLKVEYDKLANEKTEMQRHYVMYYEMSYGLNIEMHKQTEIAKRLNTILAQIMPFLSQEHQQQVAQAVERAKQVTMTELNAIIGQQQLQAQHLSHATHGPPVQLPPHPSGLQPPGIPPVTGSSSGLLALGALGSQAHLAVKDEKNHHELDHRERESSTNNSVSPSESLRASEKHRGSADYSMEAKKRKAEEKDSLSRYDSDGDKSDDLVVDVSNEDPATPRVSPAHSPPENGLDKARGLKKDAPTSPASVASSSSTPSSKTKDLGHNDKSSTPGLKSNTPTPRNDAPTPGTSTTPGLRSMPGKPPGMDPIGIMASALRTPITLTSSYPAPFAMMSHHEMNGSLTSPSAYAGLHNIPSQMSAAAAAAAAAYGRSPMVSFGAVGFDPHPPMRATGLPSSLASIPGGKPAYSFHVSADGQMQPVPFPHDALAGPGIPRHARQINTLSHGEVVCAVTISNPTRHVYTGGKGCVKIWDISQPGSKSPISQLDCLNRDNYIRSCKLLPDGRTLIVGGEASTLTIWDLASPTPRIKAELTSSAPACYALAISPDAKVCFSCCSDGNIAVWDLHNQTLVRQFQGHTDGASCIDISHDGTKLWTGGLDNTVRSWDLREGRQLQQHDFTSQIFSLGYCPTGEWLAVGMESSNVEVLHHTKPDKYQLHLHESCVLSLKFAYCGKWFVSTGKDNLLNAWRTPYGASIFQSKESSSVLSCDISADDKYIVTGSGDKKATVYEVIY
UniProt P11103: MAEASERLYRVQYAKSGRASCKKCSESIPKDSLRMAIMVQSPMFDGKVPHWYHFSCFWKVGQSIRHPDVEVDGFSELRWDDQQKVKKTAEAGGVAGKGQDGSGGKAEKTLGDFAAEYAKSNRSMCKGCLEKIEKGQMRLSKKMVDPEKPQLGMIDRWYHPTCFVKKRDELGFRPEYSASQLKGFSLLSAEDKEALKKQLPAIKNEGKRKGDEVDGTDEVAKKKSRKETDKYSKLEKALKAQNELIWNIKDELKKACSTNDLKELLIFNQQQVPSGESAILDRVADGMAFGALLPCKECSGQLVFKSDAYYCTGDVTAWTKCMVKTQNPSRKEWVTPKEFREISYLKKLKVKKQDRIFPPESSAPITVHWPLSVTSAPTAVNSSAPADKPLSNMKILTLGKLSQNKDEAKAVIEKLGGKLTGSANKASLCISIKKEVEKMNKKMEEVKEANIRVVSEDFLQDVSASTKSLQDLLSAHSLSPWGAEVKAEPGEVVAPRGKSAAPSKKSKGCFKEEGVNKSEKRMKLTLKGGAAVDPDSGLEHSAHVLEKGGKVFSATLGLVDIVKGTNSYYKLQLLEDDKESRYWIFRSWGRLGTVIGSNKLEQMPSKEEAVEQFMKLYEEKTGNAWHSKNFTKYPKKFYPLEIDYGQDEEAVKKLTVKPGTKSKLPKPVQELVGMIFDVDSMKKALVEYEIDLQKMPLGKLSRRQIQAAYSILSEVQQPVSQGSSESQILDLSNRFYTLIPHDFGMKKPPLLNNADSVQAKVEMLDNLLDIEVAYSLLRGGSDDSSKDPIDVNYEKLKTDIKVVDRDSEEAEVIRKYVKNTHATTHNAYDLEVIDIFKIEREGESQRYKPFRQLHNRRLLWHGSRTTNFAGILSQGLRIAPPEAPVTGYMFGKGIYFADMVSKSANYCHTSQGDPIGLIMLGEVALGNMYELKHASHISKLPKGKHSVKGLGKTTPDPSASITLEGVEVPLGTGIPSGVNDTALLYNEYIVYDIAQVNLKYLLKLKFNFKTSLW

The substances below were run against Sox2 (not stated (endogenous in primary rodent OLs; mouse and rat cultures were made)) (UniProt P48432) (assay: affinity purification with mass spectrometry).

binding | Substance
binds | HDAC1 (from UniProt O09106 1-482) (enzyme)
binds | HDAC2 (from UniProt P70288 1-488) (enzyme)
binds | TLE3 (from UniProt Q08122 1-772)
binds | poly (ADP-ribose) polymerase 1 (PARP1) (from UniProt P11103 1-1013) (enzyme)
